The target of the assay is T1, FLAG-tagged wild type Apoptin expressed from adenovirus Ad-Apwt (Chicken anemia virus) (UniProt Q99152).
T1 sequence: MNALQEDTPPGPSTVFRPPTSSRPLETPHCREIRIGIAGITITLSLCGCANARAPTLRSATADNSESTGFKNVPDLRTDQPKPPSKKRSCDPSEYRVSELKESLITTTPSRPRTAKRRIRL
The assay can be described thus: co-immunoprecipitation on anti-FLAG beads from H1299 cells (multimerization).

Results are given in words; binding and its absence hold for the method and conditions named. In cells and extracts the contact can be indirect. Some results given as binding are weak or reduced against the parent protein; the word gives no strength. Sequences can lack the tags named with a protein.

B1: GFP-Apwt (protein)
chain: MNALQEDTPPGPSTVFRPPTSSRPLETPHCREIRIGIAGITITLSLCGCANARAPTLRSATADNSESTGFKNVPDLRTDQPKPPSKKRSCDPSEYRVSELKESLITTTPSRPRTAKRRIRL
modifications: N-terminal GFP fusion, GFP left out
In the case of B1, the binding entry is on record as “binds”.

Source of the values: US20060057652A1.
